Some of the results follow.
The molecules below were run on T1, CTL2-GFP (C. trachomatis L2/434/Bu, GFP-expressing). Conditions: bulk GFP, single well; 28.5 h, 10 µM; inhibitor.
T1 construct: L2/434/Bu, GFP-expressing
Parameters: species or system HeLa; Intracellular C. trachomatis growth in HeLa cells, bulk GFP fluorescence relative to DMSO
For `O=C(O)c1sc2c(ccc3ccccc32)c1Br` [CBK018387], the “% of control remaining” value was 106.507%.
With `COCC(C)NC(=O)c1cc(-c2cccs2)nc2onc(C)c12` (stereo not shown) [CBK306473] the “% of control remaining” value was 102.399%.
With `COc1cccc(CC(=O)N2CCOc3ncccc32)c1` [CBK305235] the “% of control remaining” value was 109.332%.
With `O=C(O)CC(=Cc1csc(-c2ccc(Cl)cc2)n1)c1nc2ccccc2o1` [CBK297112] the “% of control remaining” value was 142.522%.
In the case of `Cc1ccccc1-c1cc(=O)[nH]c(Nc2ccccc2)n1` [CBK288142], the “% of control remaining” value is reported as 69.8705%.
For `O=C(NC1CCN(CC(F)(F)F)CC1)c1cnc(-c2ccccc2)s1` [CBK305474], the “% of control remaining” value was 108.269%.
`O=C(CN1CCC(c2ccncc2)CC1)N1CCCCC1` [CBK283504] was tested, and the “% of control remaining” value was 94.7464%.
With `COc1ccc(-n2nc(N)c3c(=O)oc(N(C)C)nc32)cc1` [CBK007445] the “% of control remaining” value was 132.441%.
In the case of `CN(C)CCNC(=O)c1ccc(-c2cnc3[nH]c(=O)n(CC4CC4)c3n2)cc1` [CBK064578], the “% of control remaining” value is reported as 128.555%.
With `Cc1cccc(-c2ncc(C(=O)NCCc3c[nH]cn3)cc2-c2ccncc2)c1` [CBK036678] the “% of control remaining” value was 220.236%.
In the case of `CC1CCCN(Cc2c(C3CCNCC3)[nH]c3ncccc23)C1` (stereo not shown) [CBK285078], the “% of control remaining” value is reported as 145.158%.
For `Cn1cc(C(=O)N2CCc3ccccc3C2)c2ccccc21` [CBK200338], the “% of control remaining” value was 112.81%.
For `O=C(C1=C(O)C(=O)N(Cc2cccnc2)C1c1cccc([N+](=O)[O-])c1)c1ccccc1` (stereo not shown) [CBK263383], the “% of control remaining” value was 107.565%.
With `CC(=O)N1N=C(c2cccnc2)OC1(C)C` [CBK023619] the “% of control remaining” value was 118.531%.
`Cc1nc(CC(=O)N2[C@H]3CCCCCN(C)[C@@]3(C)C[C@H]2c2ccccc2)cs1` [CBK286104] was tested, and the “% of control remaining” value was 87.391%.
In the case of `COc1cc(CN2CCN(C/C=C/c3ccccc3)CC2)c([N+](=O)[O-])cc1OC` [CBK261550], the “% of control remaining” value is reported as 110.649%.
For `O=C(Nc1cccc(C(=O)O)c1)/C(=C\c1ccc2c(c1)OCO2)NC(=O)c1ccc(Br)o1` [CBK263720], the “% of control remaining” value was 100%.
With `COc1ccc(-c2cnc3[nH]c(=O)n([C@@H](CO)C(C)C)c3n2)c(OC)c1OC` [CBK064774] the “% of control remaining” value was 108.551%.
`CC1CC(C)CN(C(=O)NCCCCCC(=O)O)C1` (stereo not shown) [CBK286793] was tested, and the “% of control remaining” value was 116.281%.
For `O=C(Nc1cccc(C(F)(F)F)c1)c1c(O)c2ccccc2[nH]c1=O` [CBK159985], the “% of control remaining” value was 125.895%.
With `CCc1nc(CN2CCCC(NCc3cccc(C(N)=O)c3)C2)no1` (stereo not shown) [CBK306254] the “% of control remaining” value was 194.69%.
For `COCCCn1cnnc1C(C)NC(=O)N(C)Cc1nccs1` (stereo not shown) [CBK306702], the “% of control remaining” value was 129.809%.
With `c1ccc(N2CCN(C3CCN(Cc4ccccn4)CC3)CC2)cc1` [CBK264684G] the “% of control remaining” value was 130.796%.
With `Cc1cc(C)nc(-n2[nH]c(N)cc2=O)n1` [CBK270164] the “% of control remaining” value was 144.394%.
`Cc1cc(C(=O)N2CCc3c(sc4ncnc(N)c34)C2)sc1C` [CBK306420] was tested, and the “% of control remaining” value was 115.23%.
In the case of `CN(CCC#N)C(=O)c1cc2cc(Cl)ccc2[nH]1` [CBK287956], the “% of control remaining” value is reported as 113.276%.
`CCc1ccc(C(O)CNC2CCN(c3nccs3)CC2)cc1` (stereo not shown) [CBK304215] was tested, and the “% of control remaining” value was 111.571%.
`O=C(CSc1nnc(-c2ccco2)o1)Nc1cccc2nsnc12` [CBK268006] was tested, and the “% of control remaining” value was 111.626%.
For `Cc1ccc(-c2cnc3ccccc3n2)cc1NC(=O)c1ccccc1S(=O)(=O)c1ccc([N+](=O)[O-])cc1` [CBK267690], the “% of control remaining” value was 111.312%.
With `O=C(Nc1ccc(NC(=O)c2cc3ccccc3o2)cc1)c1ccc(-c2ccccc2)cc1` [CBK268887] the “% of control remaining” value was 134.064%.
With `CC(C)(C)OCc1[nH]nc(O)c1Cc1c(Cl)cccc1Cl` [CBK089569] the “% of control remaining” value was 95.1825%.
`COc1ccc(C(=O)N2CCC[C@H]3NC(=O)COc4ccccc4C(=O)N[C@@H]4CCOC[C@@H]4C/C=C/C[C@@H]32)cc1` [CBK292194] was tested, and the “% of control remaining” value was 101.029%.
`Cc1ccc2c(c1)C(=O)CC1(CCC3C(C(=O)NC4CCCC4)C31)O2` (stereo not shown) [CBK282716] was tested, and the “% of control remaining” value was 108.602%.
With `COCC(=O)N[C@H]1C[C@H]2C(=O)Nc3ccc(-c4cccs4)cc3C(=O)N2C1` [CBK289358] the “% of control remaining” value was 132.39%.
With `Cc1ccc(C(=O)N2CC=C(c3c[nH]c4ncccc34)CC2)cn1` [CBK297889] the “% of control remaining” value was 141.171%.
For `CCC(C)NC(=O)Cn1c(C2CCCNC2)cc2cccnc21` (stereo not shown) [CBK285085], the “% of control remaining” value was 134.166%.
With `CCOC(=O)C1(C2CCCCC2)CCN(C(=O)C2COc3ccccc3O2)CC1` (stereo not shown) [CBK136925] the “% of control remaining” value was 96.8076%.
With `Cc1ccc(CNC(=O)N2CCC3(CC2)OCCc2c3[nH]c3ccccc23)cc1` [CBK047121] the “% of control remaining” value was 213.572%.
For `CSCCC(=O)N1CCCC2(CCN(C(=O)c3cc(F)c(F)cc3F)C2)C1` (stereo not shown) [CBK131557], the “% of control remaining” value was 115.23%.
With `N#Cc1ccc(NC(=O)Nc2ccccc2)cc1` [CBK086045] the “% of control remaining” value was 90.0037%.
For `O=C(C1CC=CCC1)N1CCC(c2[nH]ncc2-c2ccncc2)CC1` (stereo not shown) [CBK284212], the “% of control remaining” value was 115.959%.
`Cc1c(Cl)cccc1NC(=O)CSc1nnc(Cc2cccc3ccccc23)n1-c1ccccc1` [CBK266042] was tested, and the “% of control remaining” value was 109.539%.
`COc1ccc([N+](=O)[O-])cc1CSc1nnc(-c2ccco2)n1C` [CBK269671] was tested, and the “% of control remaining” value was 113.895%.
With `Cc1cccc(-c2cncc(C3CCCN(C(=O)Cc4c[nH]c5ccccc45)C3)n2)c1` (stereo not shown) [CBK286149] the “% of control remaining” value was 133.223%.
`COc1ccccc1/C=C/C1=NN(c2ccc(F)cc2)C(c2ccccc2OC)C1` (stereo not shown) [CBK262303] was tested, and the “% of control remaining” value was 100%.
`CC(=O)Nc1ccc(S(=O)(=O)Nc2ccc(-c3cn4cccnc4n3)cc2)cc1` [CBK268671] was tested, and the “% of control remaining” value was 74.5601%.
For `O=C(NCCc1cccs1)Nc1ccc(Cl)cc1C(F)(F)F` [CBK044825], the “% of control remaining” value was 95.6946%.
With `C=CCn1c(Cc2csc(NC(=O)c3cccc(NC(C)=O)c3)n2)n[nH]c1=S` [CBK297891] the “% of control remaining” value was 150%.
`COc1ccc2sc(Br)c(C(=O)O)c2c1` [CBK019180] was tested, and the “% of control remaining” value was 141.404%.

— paper PMC12040169 (PLOS Biology, 2025)
